The record followed here is the supplement of paper PMC12819154, “High-throughput peptide-centric local stability assay extends protein–ligand identification to membrane proteins, tissues and bacteria” (Nature Structural & Molecular Biology, 2025).

Protein sequences, listed by entry. Tags and fused reporters are not part of them. Lines headed by an entry give the natural chain unless they say otherwise; changes in a name come on top.
UniProt L0R819, whole entry: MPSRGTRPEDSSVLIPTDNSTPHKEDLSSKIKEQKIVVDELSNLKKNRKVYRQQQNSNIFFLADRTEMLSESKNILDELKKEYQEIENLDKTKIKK
UniProt O15259: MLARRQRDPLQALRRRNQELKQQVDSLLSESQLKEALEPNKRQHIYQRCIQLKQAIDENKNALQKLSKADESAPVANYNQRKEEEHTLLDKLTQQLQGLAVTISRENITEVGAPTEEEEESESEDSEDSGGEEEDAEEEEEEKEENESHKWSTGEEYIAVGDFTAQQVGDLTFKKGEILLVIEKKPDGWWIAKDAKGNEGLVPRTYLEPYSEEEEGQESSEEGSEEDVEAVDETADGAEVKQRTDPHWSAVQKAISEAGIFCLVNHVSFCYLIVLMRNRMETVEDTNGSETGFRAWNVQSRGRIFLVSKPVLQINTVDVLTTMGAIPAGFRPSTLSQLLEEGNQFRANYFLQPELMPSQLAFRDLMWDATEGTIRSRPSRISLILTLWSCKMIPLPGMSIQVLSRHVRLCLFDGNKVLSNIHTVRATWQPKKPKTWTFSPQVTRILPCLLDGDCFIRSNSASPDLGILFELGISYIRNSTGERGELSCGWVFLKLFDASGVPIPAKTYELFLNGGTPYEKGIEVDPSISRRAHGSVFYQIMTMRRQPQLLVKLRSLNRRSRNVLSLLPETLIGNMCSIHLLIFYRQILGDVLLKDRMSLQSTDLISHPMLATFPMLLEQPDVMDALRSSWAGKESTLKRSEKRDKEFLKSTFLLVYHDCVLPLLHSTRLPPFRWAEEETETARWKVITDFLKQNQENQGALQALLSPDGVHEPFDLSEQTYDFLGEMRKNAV
UniProt O15523: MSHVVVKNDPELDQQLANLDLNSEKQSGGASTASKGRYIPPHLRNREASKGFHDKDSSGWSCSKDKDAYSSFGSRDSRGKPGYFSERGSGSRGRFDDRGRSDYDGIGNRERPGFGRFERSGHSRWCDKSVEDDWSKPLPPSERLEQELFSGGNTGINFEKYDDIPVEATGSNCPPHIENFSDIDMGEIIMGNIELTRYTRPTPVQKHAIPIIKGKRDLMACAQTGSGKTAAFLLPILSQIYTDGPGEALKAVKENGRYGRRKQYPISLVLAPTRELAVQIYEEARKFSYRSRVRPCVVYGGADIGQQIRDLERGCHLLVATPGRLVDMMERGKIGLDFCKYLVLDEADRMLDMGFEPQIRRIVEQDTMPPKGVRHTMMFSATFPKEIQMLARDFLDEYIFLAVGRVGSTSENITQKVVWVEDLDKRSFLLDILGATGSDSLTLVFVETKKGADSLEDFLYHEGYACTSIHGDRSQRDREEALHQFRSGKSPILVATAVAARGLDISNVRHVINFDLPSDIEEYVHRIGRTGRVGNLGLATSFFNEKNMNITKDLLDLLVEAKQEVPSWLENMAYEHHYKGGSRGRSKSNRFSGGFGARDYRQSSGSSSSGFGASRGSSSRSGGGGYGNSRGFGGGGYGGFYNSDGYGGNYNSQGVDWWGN
UniProt O15391, whole entry: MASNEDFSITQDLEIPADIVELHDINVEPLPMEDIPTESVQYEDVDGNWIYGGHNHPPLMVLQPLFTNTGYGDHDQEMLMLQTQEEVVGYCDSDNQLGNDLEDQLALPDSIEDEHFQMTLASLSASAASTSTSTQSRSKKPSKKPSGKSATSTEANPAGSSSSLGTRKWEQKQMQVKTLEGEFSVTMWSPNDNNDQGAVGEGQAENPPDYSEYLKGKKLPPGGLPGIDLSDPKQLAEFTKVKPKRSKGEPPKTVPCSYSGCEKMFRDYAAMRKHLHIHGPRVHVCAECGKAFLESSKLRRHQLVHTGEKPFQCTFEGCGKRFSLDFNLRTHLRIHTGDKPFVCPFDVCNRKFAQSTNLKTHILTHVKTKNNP
UniProt O00471: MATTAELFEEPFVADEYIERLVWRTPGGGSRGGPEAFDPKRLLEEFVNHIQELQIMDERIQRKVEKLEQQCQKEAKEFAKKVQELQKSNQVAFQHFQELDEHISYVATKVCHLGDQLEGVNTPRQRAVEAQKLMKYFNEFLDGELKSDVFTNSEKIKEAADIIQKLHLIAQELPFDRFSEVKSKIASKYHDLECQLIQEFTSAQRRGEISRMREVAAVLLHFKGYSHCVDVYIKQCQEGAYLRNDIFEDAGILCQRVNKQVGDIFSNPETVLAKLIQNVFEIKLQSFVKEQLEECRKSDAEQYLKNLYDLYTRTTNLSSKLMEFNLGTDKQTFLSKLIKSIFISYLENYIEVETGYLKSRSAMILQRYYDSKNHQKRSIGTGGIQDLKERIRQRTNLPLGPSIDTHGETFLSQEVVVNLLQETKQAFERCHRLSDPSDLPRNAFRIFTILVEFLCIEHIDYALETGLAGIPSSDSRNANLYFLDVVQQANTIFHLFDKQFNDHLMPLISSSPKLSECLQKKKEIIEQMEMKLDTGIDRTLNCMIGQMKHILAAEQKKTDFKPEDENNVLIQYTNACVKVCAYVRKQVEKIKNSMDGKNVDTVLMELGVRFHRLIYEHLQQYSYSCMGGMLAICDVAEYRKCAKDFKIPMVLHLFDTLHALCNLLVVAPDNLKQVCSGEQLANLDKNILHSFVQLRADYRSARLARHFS
UniProt O15370: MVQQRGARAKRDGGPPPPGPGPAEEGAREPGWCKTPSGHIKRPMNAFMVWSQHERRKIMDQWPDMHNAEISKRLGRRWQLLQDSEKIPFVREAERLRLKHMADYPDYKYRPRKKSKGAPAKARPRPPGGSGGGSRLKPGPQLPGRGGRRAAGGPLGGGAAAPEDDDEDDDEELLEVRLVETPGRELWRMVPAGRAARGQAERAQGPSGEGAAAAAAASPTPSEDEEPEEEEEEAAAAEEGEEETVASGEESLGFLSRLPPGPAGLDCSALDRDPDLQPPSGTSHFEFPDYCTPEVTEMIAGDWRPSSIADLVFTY
UniProt O15258: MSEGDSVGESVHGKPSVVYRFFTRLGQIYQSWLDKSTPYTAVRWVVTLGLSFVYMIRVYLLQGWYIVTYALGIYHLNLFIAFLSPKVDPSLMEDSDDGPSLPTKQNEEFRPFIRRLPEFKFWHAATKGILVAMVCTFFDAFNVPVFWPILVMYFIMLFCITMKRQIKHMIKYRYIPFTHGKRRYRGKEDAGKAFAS
UniProt B2RTY4: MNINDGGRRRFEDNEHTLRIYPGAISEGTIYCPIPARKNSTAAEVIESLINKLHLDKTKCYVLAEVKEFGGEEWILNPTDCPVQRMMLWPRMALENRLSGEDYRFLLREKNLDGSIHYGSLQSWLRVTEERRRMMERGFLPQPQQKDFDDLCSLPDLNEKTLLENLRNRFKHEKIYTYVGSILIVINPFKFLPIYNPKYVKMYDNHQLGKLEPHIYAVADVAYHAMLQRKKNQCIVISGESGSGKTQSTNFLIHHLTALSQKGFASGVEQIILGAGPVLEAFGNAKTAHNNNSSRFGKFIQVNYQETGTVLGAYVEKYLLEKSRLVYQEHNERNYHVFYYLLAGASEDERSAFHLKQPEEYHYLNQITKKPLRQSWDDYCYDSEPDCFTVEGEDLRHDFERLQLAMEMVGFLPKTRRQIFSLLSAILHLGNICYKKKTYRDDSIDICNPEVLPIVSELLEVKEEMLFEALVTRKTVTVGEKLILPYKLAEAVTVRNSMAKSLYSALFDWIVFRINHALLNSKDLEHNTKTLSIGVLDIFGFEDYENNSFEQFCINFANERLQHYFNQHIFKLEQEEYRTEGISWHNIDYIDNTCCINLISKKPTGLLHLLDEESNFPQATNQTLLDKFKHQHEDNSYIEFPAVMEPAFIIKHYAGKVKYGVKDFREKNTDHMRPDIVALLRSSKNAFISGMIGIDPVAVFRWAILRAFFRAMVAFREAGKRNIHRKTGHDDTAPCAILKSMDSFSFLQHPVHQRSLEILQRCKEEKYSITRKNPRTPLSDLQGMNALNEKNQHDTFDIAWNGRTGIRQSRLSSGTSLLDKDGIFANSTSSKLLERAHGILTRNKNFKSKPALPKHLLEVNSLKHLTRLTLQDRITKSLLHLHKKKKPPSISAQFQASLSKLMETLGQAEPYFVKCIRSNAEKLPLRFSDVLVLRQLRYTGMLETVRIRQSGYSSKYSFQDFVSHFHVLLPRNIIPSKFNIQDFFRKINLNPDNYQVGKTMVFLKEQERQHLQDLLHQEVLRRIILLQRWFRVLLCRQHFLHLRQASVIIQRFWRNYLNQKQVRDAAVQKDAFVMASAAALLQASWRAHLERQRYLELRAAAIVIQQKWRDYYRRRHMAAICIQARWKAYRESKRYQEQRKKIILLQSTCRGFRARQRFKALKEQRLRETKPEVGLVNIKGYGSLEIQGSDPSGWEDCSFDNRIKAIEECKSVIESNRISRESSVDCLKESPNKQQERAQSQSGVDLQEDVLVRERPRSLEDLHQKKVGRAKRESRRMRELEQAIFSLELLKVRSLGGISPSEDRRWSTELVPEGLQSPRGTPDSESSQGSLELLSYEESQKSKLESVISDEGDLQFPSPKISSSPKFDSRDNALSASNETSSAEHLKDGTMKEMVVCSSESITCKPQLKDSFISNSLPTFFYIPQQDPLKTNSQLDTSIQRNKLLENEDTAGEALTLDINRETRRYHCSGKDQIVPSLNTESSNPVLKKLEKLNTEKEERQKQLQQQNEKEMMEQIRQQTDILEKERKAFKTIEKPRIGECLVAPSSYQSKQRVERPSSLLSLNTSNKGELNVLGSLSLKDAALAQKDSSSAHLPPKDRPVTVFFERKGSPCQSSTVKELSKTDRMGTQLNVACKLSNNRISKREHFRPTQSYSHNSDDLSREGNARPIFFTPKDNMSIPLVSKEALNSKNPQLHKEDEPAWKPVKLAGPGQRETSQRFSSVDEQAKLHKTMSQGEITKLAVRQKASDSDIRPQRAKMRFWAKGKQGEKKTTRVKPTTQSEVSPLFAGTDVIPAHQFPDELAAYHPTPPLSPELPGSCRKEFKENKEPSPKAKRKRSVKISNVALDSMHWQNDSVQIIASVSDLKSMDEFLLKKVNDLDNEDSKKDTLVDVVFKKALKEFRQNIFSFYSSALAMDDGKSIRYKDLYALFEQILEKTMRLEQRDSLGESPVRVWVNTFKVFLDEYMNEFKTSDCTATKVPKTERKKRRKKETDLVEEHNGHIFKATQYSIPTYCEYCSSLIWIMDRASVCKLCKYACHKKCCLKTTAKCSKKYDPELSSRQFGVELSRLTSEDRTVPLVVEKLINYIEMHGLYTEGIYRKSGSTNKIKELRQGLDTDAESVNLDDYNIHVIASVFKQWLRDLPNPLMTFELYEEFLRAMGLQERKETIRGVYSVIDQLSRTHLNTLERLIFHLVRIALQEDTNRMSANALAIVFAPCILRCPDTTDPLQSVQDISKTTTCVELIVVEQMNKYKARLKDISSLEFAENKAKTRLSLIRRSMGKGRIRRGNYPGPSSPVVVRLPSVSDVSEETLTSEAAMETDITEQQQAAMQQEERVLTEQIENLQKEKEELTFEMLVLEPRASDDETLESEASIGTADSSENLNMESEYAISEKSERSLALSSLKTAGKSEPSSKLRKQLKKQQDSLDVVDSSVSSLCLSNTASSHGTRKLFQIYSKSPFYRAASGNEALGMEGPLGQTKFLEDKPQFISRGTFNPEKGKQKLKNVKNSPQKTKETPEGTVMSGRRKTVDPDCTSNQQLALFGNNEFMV
UniProt O14936: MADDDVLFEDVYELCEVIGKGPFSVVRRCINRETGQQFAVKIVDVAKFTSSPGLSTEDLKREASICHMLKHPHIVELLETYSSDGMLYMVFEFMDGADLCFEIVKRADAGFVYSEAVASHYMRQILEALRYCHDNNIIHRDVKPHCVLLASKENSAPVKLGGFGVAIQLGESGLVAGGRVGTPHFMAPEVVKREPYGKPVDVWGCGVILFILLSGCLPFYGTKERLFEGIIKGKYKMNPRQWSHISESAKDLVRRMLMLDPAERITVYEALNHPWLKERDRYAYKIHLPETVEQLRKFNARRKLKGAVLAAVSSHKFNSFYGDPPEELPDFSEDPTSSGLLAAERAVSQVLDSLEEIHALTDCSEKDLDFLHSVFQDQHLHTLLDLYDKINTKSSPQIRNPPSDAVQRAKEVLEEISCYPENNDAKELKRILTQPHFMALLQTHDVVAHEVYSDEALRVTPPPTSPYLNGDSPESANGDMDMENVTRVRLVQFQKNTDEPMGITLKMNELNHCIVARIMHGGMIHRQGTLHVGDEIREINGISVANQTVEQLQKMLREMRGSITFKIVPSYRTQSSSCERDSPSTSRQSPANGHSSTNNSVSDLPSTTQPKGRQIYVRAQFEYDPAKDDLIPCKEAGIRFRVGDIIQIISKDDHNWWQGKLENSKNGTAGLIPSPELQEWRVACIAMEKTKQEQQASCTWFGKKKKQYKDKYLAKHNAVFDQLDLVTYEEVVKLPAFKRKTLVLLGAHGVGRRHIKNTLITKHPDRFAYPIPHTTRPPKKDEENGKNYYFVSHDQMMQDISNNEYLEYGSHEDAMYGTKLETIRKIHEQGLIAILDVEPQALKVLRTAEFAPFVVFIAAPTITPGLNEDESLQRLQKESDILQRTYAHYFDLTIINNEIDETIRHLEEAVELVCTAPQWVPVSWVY

Compound in this experiment: Cc1nc(Nc2ncc(C(=O)Nc3c(C)cccc3Cl)s2)cc(N2CCN(CCO)CC2)n1 [dasatinib]
The experiment can be described thus: log2 fold change of tryptic peptide abundance, ligand vs vehicle (limited proteolysis) (log2 ratio); higher = more trypsin-susceptible (destabilized). The conditions noted are these: ligand concentration: 5 uM; sample: K562 cleared lysate.

The list shows a part of the results. Most values lie at the level of the controls, where differences are scatter.

Take “MYO1C (peptide sequence: QKGDVVLQSDHVIETLTK, peptide start residue: 988) (UniProt O00159)”: the log2 fold change is -0.244.

“UniProt C4AMC7 (peptide sequence: THVMLGAETEEKLFDAPLSISKR, peptide start residue: 199)”: the log2 fold change amounted to 0.281. Take “KRIT1 (peptide sequence: SKAPHWTNR, peptide start residue: 592) (UniProt O00522)”: the log2 fold change was -0.425.

As for “HAX1 (peptide sequence: ITKPDGIVEER, peptide start residue: 216) (UniProt O00165)”, the log2 fold change is -0.169. As for “ZBTB5 (peptide sequence: MPVVTSVR, peptide start residue: 542) (UniProt O15062)”, the figure is -0.315; as for “IFRD1 (peptide sequence: MYIDCWVKK, peptide start residue: 363) (UniProt O00458)”, 0.302; as for “SMAD9 (peptide sequence: NSTIENTRR, peptide start residue: 320) (UniProt O15198)”, -0.54. As to “BCL9 (peptide sequence: FAMPSSTPLYHDAIK, peptide start residue: 1016) (UniProt O00512)”, the log2 fold change stood at 0.31. As for “UniProt L0R819 (peptide sequence: NILDELKK, peptide start residue: 74)”, the figure is -0.0837; as for “ACOT8 (peptide sequence: GYIGEGDMK, peptide start residue: 213) (UniProt O14734)”, 0.528. “PES1 (peptide sequence: KLQLSLADFRR, peptide start residue: 26) (UniProt O00541)”: the log2 fold change is -0.396. Take “UniProt B7ZLF3 (peptide sequence: IHSGEKPHQCAQCGR, peptide start residue: 117)”: the log2 fold change is 1.01.

With “PMM2 (peptide sequence: RICELLFS, peptide start residue: 239) (UniProt O15305)”, the log2 fold change was -0.353. Turning to “UniProt O00472 (peptide sequence: STPMNPANTIR, peptide start residue: 183)”, the log2 fold change worked out at 0.0196. In the case of “UniProt O15259 (peptide sequence: EENESHK, peptide start residue: 144)” it was -0.079; in that of “POLR2D (peptide sequence: LHKFELACLANLCPETAEESK, peptide start residue: 92) (UniProt O15514)”, 0.218; in that of “UniProt H3BQB6 (peptide sequence: MEAAEERR, peptide start residue: 173)”, -0.87. On to “UniProt B7ZW38 (peptide sequence: VFIGNLNTLVVKK, peptide start residue: 18)”, for which the log2 fold change worked out at 0.0614. As for “UniProt O15523 (peptide sequence: MLDMGFEPQIR, peptide start residue: 253)”, the log2 fold change is -0.122. In the case of “DVL2 (peptide sequence: VIYHLDEEETPYLVKIPVPAER, peptide start residue: 16) (UniProt O14641)” it was 0.133. In the case of “CD3EAP (peptide sequence: GKETFEPEDKTVK, peptide start residue: 258) (UniProt O15446)” it was -0.7; in that of “SAP18 (peptide sequence: KKGTHFNFAIVFTDVK, peptide start residue: 82) (UniProt O00422)”, -0.157; in that of “UniProt O15391 (peptide sequence: FSLDFNLR, peptide start residue: 364)”, 0.313. As for “UniProt O15111 (peptide sequence: GGPVDLTLK, peptide start residue: 288)”, the figure is 0.351; as for “ITGB1BP1 (peptide sequence: SSTVASLDTDSTK, peptide start residue: 36) (UniProt O14713)”, 0.322. Take “MYO1F (peptide sequence: GGPLPLEIMSGGGTHRPPR, peptide start residue: 964) (UniProt O00160)”: the log2 fold change came out at 0.0987. Turning to “UniProt A8MT65 (peptide sequence: KQGQTHTEKK, peptide start residue: 310)”, the log2 fold change was 0.531. With “ACACB (peptide sequence: IGFPLMIK, peptide start residue: 447) (UniProt O00763)”, the log2 fold change worked out at 0.158. As for “EXOC5 (peptide sequence: KTDFKPEDENNVLIQYTNACVK, peptide start residue: 557) (UniProt O00471)”, the figure is -0.792; as for “DVL1 (peptide sequence: TGGIGDSRPPSFHPNVASSR, peptide start residue: 109) (UniProt O14640)”, -0.2. In the case of “SURF4 (peptide sequence: SMFAGVPTMR, peptide start residue: 140) (UniProt O15260)”, the log2 fold change came to 0.074. As to “BCKDK (peptide sequence: LVRYFLDK, peptide start residue: 185) (UniProt O14874)”, the log2 fold change is 0.207.

“TRDMT1 (peptide sequence: LETAEEIHRK, peptide start residue: 232) (UniProt O14717)”: the log2 fold change was 0.41.

“UniProt C9JQI7 (peptide sequence: EKEDAICK, peptide start residue: 608)”: the log2 fold change is -0.0727. As for “POLR1C (peptide sequence: VVLGEFGVR, peptide start residue: 14) (UniProt O15160)”, the figure is -0.0392; as for “PPM1G (peptide sequence: CSGDGVGAPR, peptide start residue: 13) (UniProt O15355)”, 0.138.

As to “TRAFD1 (peptide sequence: AFESDVFHNR, peptide start residue: 188) (UniProt O14545)”, the log2 fold change is -0.134. Turning to “UniProt O15117 (peptide sequence: FKYDGEIR, peptide start residue: 699)”, the log2 fold change was 0.284. As for “SIVA1 (peptide sequence: AVCGQCER, peptide start residue: 125) (UniProt O15304)”, the log2 fold change was 0.366. “EIF3F (peptide sequence: IGVDLIMK, peptide start residue: 247) (UniProt O00303)”: the log2 fold change amounted to 0.0366. For “SLC33A1 (peptide sequence: RPGNFSHSLDMK, peptide start residue: 15) (UniProt O00400)”, the log2 fold change was -0.0303. As for “CHD2 (peptide sequence: FTEFDAR, peptide start residue: 1485) (UniProt O14647)”, the figure is 0.27; as for “TNFRSF10A (peptide sequence: IQDLLVDSGK, peptide start residue: 444) (UniProt O00220)”, 0.171.

Take “LBA1 (peptide sequence: STAPGHTSQLK, peptide start residue: 626) (UniProt O15050)”: the log2 fold change was -0.688. With “MRPS12 (peptide sequence: KLGPTEGRPQLK, peptide start residue: 48) (UniProt O15235)”, the log2 fold change came to 0.0528. On to “YKT6 (peptide sequence: ASVKEQDYLCHVYVR, peptide start residue: 57) (UniProt O15498)”, for which the log2 fold change is -0.303.

Regarding “FPGT (peptide sequence: FLHKPSIEK, peptide start residue: 240) (UniProt O14772)”, the log2 fold change turned out to be 0.0364. For the target “NDC80 (peptide sequence: EEVQKLDDLYQQK, peptide start residue: 505) (UniProt O14777)”, the log2 fold change turned out to be 0.744. “KIF3B (peptide sequence: RPVSAVGYK, peptide start residue: 628) (UniProt O15066)”: the log2 fold change is 0.615. On to “SOX12 (peptide sequence: WQLLQDSEKIPFVR, peptide start residue: 78) (UniProt O15370)”, for which the log2 fold change is -0.157. Regarding “RER1 (peptide sequence: YRGKEDAGK, peptide start residue: 184) (UniProt O15258)”, the log2 fold change is -0.269. As for “UniProt B3KNS4 (peptide sequence: RDPWYSTVGLLPPVR, peptide start residue: 20)”, the log2 fold change was 0.0697. As for “LSM1 (peptide sequence: DRGLSIPR, peptide start residue: 119) (UniProt O15116)”, the log2 fold change turned out to be 0.181. “MYO9A (peptide sequence: ETKPEVGLVNIK, peptide start residue: 1168) (UniProt B2RTY4)”: the log2 fold change is -0.48. As to “NUDT19 (peptide sequence: FGLGPAPFSR, peptide start residue: 89) (UniProt A8MXV4)”, the log2 fold change was -0.0548. As for “SOCS2 (peptide sequence: EAPEGTFLIR, peptide start residue: 64) (UniProt O14508)”, the figure is -0.0891; as for “SUPT5H (peptide sequence: TRHLVLAGGSKPR, peptide start residue: 640) (UniProt O00267)”, -0.825. In the case of “KIF3C (peptide sequence: VGKLNLVDLAGSER, peptide start residue: 238) (UniProt O14782)” it was 0.153; in that of “CASK (peptide sequence: AQFEYDPAKDDLIPCKEAGIR, peptide start residue: 619) (UniProt O14936)”, 0.146; in that of “TCERG1 (peptide sequence: LIVAYVDDLDRR, peptide start residue: 1070) (UniProt O14776)”, 0.0886. Take “HDAC3 (peptide sequence: LALTHSLVLHYGLYK, peptide start residue: 29) (UniProt O15379)”: the log2 fold change was determined as 0.814. As for “BIRC5 (peptide sequence: RAIEQLAAMD, peptide start residue: 133) (UniProt O15392)”, the figure is -0.24.
